Results: PubChem BioAssay AID485314 (National Center for Advancing Translational Sciences (NCATS), 2010)
Among all 340,000 compounds or so, about 4,500 (1.3%) were called active. This list was built around the results that the source calls inconclusive (neither active nor inactive); the mix of calls is not that of the screen. Calls follow the shape of the dose curve; as a rule, active = well fitted inhibition curve with a large enough effect; inconclusive = small, poorly fitted or top-dose-only effect, or another doubt; inactive = no such curve, though single readings can be large or run the other way. Potencies beside an inconclusive call are fits to weak or partial responses and may not hold up.

Biological target: DNA polymerase beta (Homo sapiens) (UniProt P06746)
Assay: qHTS Assay for Inhibitors of DNA Polymerase Beta
Conditions: Pol beta primer extension/strand displacement, fluorescence kinetic; series mostly up to 114 µM
In short: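 Reaction started by 50 nM substrate onto compound-treated Pol beta (10 nM, 15 min preincubation, room temperature); plates read at 0 min and 10 min. Normalized concentration-effect data fitted by four-parameter Hill equation.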
Potency is read from the fitted curve at half-maximal effect.

Potency, inactive:
COc1cc(/C=C2/C(=O)N(c3ccc(C)c(C)c3)N=C2C)cc([N+](=O)[O-])c1O
CSc1ccccc1NC(=O)CN(C)CC(=O)Nc1ccc(Cl)cc1F
COc1cc(NC(=O)Cn2c(=O)n(CC(=O)NCCc3ccc(OC)c(OC)c3)c(=O)c3sccc32)cc(OC)c1
Cc1ccc(C(=O)c2oc3ccccc3c2NC(=O)c2cc(-c3ccc(Cl)cc3)on2)cc1
CCN1/C(=C\C(=S)Nc2ccccc2)Sc2ccccc21
CCOC(=O)CNC(=O)CSc1cn(CC(=O)N2CCCCCC2)c2ccccc12
CCOc1ccc(C(=O)NCc2nnnn2-c2ccc(C)c(C)c2)cc1OCC
Cc1cccc(N2CCN(C(=O)Cn3ncc4c3-c3cc(C)ccc3OC4)CC2C)c1 (configuration not stated)
Clc1ccc(-c2nnc3sc(-c4ccc(Br)o4)nn23)cc1
COc1ccc(S(=O)(=O)Nc2cccc(S(=O)(=O)N3CCCCCC3)c2)cc1
CC(Cc1ccccc1)N1C(=O)c2cccc([N+](=O)[O-])c2C1=O (configuration not stated)
Cc1cc(C(=O)OCC(=O)N2c3ccccc3NC(=O)C2(C)C)c(C)n1-c1ccccc1
Nc1nnc(CC(=O)N/N=C/c2ccc(-c3cccc(C(=O)O)c3)o2)s1
CCOc1cc(CNc2ccc(N3CCCCC3)cc2)cc(Br)c1OCC(=O)NC(C)(C)C
O=C(CSc1nnc(-c2ccccc2)c(-c2ccccc2)n1)NCCc1ccccc1
O=C(O)c1cc(=O)n(Cc2ccccc2)c(=O)[nH]1
COc1ccccc1-n1c(C)cc(/C=C2/C(=N)N3C(=NC2=O)SN=C3S(C)(=O)=O)c1C
COc1ccc(C(=O)Nc2nnc(SCc3cc(=O)c4cccc(F)c4[nH]3)s2)cc1
CCCCN(C(=O)c1ccc2c(c1)OCO2)c1ccccc1
COc1ccc(N2CCN(C(=O)C3CCN(S(=O)(=O)c4cccc5nonc45)CC3)CC2)cc1
O=C(NCCCN1CCN(c2ccc(F)cc2)CC1)c1cc2c(Cl)nc3ccccc3c2s1
O=C(c1c[nH]c2ccc(S(=O)(=O)N3CCOCC3)cc2c1=O)N1CCCC1
COc1ccc(-n2c(Cc3cccn3C)nnc2SCC(=O)NCc2ccccc2Cl)cc1
Cc1occc1-c1nnc(SCC(=O)NC(C)(C)C)n1CC(C)C

Potency, active:
O=C(O)C1CC=CCC1C(=O)Nc1ccccc1 (configuration not stated) 31.6 µM
CC(C)(C)NC(=O)Cc1ccc(S(=O)(=O)N2CCCC2)s1 35.5 µM
Cc1ccc(/C=C2\SC(=S)N(CC3CCCO3)C2=O)o1 (configuration not stated) 20 µM
O=c1c2ccccc2nc(SCc2cc(=O)n3ccsc3n2)n1CCCO 31.6 µM
Cc1cc(C=O)c(C)n1-c1cc(C(=O)O)cc(C(=O)O)c1 7.94 µM
O=C(CSc1nc2ccccc2s1)NC(=O)NCc1ccco1 22.4 µM
O=C(CN1C(=O)N/C(=C\c2ccccc2OCc2ccc(C(=O)O)cc2)C1=O)Nc1ccc(F)cc1 79.4 µM
O=C(Cn1ncc2c3ccccc3n(Cc3cccc(Cl)c3)c2c1=O)NCCCc1ccccc1 28.2 µM
O=C(NNC(=O)c1cc2cc3ccccc3nc2s1)c1ccc(F)cc1 0.316 µM

Potency, inconclusive:
O=C(N/N=C/c1ccc(-c2ccc([N+](=O)[O-])cc2)o1)c1cccnc1 17.8 µM [inhibitor, full curve, poor fit]
COC(=O)c1c(NC(=O)CCc2ccc(C)o2)sc(C)c1C 89.1 µM [inhibitor, single point]
COc1ccc(-c2cc(-c3ccccc3O)[nH]n2)cc1OC 3.98 µM [inhibitor, partial curve]
O=C(NCc1ccc(F)cc1)Nc1ccccc1 12.6 µM [inhibitor, partial curve, poor fit]
Cc1cccc2c1OCC/C2=N\NC(=O)COc1ccccc1 8.91 µM [inhibitor, full curve]
O=C(Cn1cnc2c(nnn2-c2ccccc2)c1=O)NCC1CCCO1 (configuration not stated) 3.16 µM [inhibitor, full curve]
Cc1cccc(Nc2nc(-c3ccc(O)cc3O)cs2)n1 20 µM [inhibitor, single point]
CCc1nn(CC(=O)NCC(C)c2ccccc2)c(=O)c2cc3occc3n12 (configuration not stated) 22.4 µM [inhibitor, full curve]
O=c1cc(CSc2nnnn2-c2ccc(O)cc2)nc2sccn12 28.2 µM [inhibitor, single point]
COc1ccc(NC(=O)c2ccc(-n3nc(C)c[n+]3[O-])cc2)cc1 89.1 µM [inhibitor, single point]
O=c1[nH]c(/C=C/c2ccccc2Cl)nc2ccccc12 3.98 µM [inhibitor, full curve, poor fit]
Cc1c(NC(=S)NC(=O)c2ccco2)cccc1-c1nc2ncccc2o1 89.1 µM [inhibitor, single point]
Cc1ccc(S(=O)(=O)Nc2cc(=O)[nH]c(SCC(=O)Nc3ccccc3Cl)n2)cc1 79.4 µM [inhibitor, single point]
CC12CC(NC(=O)N1c1cccc(C(=O)NCc3ccccc3)c1)c1ccccc1O2 (configuration not stated) 0.282 µM [inhibitor, full curve, poor fit]
COc1cc2cc(CN(Cc3cccnc3)C(=O)Nc3ccccc3)c(=O)[nH]c2cc1OC 5.62 µM [inhibitor, partial curve, poor fit]
COc1ccc(CCNC(=O)CSc2nnnn2C)cc1OC 63.1 µM [inhibitor, single point]
Cc1ccccc1C(=O)NNC(=O)c1ccoc1C 2.82 µM [inhibitor, partial curve, poor fit]
Cc1ccc(C(=O)O/N=C2\CCSc3ccc(C)cc32)cc1 1.78 µM [inhibitor, full curve, poor fit]
O=C(c1cnc2n(c1=O)CCS2)N1CCN(c2ccc([N+](=O)[O-])cc2)CC1 100 µM [inhibitor, single point]
O=C(/C=C/c1cccs1)c1ccc(NC(=O)c2cccc(Br)c2)cc1 44.7 µM [inhibitor, full curve, poor fit]
COc1ccc(N(Cc2cc(=O)[nH]c3ccccc23)C(=O)c2ccco2)cc1 39.8 µM [inhibitor, single point]
COC(=O)c1c(NC(=O)COc2ccc(C)cc2Br)sc2c1CCCC2 0.1 µM [inhibitor, full curve]
O=C(Nc1nnc(S(=O)(=O)N2CCOCC2)s1)c1ccccc1Br 89.1 µM [inhibitor, single point]
C=C(C)COc1ccc(-c2nc(N)ncc2-c2ccc(Cl)cc2)c(O)c1 14.1 µM [inhibitor, full curve]
O=S(=O)(NCc1ccccn1)c1cc(Cl)ccc1Cl 39.8 µM [inhibitor, single point]
S=C(Nc1cccc(Cl)c1)Nc1cccc2cnccc12 6.31 µM [inhibitor, full curve, poor fit]
COc1ccc(C)cc1NC(=O)Nc1cc(C(=O)NCc2ccc(C)cc2)ccc1N1CCCC1 39.8 µM [inhibitor, single point]
CCOc1ccccc1OCCCCn1c(-c2ccc(Cl)cc2)nc2ccccc2c1=O 0.355 µM [inhibitor, partial curve]
CCN1CCN(CCCNC(=O)CS(=O)(=O)Cc2nc(-c3ccccc3C)oc2C)CC1 89.1 µM [inhibitor, single point]
COC(=O)c1cc(OC)c(OC)cc1NC(=O)Cc1cccs1 0.282 µM [inhibitor, full curve]
CCOC(=O)c1c(C)[nH]c(C(=O)CSc2nnnn2-c2ccc(C)cc2)c1C 100 µM [inhibitor, single point]
CC(=O)Nc1ccc(S(=O)(=O)N2CCN(c3cc(C)nc4ncnn34)CC2)cc1 79.4 µM [inhibitor, single point]
CCC(Sc1nc(-c2ccccc2)[nH]c1S(=O)(=O)c1ccc(C)cc1)C(=O)O (configuration not stated) 100 µM [inhibitor, single point]
Cc1sc2nc(C3CC3)nc(SCC(=O)NCc3ccco3)c2c1C 0.794 µM [inhibitor, full curve, poor fit]
CCCN(CCC)C(=O)c1cc(-c2ccc3c(c2)OCO3)nc2ccccc12 10 µM [inhibitor, full curve, poor fit]
COc1ccc(OC)c(NC(=O)c2cnc(Nc3ccc(C)c(Cl)c3)c3ccccc23)c1 17.8 µM [inhibitor, single point]
Cc1ccc(N2CCN(C(=O)c3ccccc3)CC2)c(C)c1 89.1 µM [inhibitor, single point]
CCNc1nc(Oc2ccc(F)cc2)cc(C(F)(F)F)n1 35.5 µM [inhibitor, single point]
Cc1ccc(/C=C(\C#N)c2nc3ccccc3[nH]2)s1 50.1 µM [inhibitor, single point]

Ordered by number of heavy atoms (rising): five of the compounds above
Potency, inconclusive:
Cc1ccc(/C=C(\C#N)c2nc3ccccc3[nH]2)s1 50.1 µM [inhibitor, single point]
O=C(/C=C/c1cccs1)c1ccc(NC(=O)c2cccc(Br)c2)cc1 44.7 µM [inhibitor, full curve, poor fit]
COc1ccc(N(Cc2cc(=O)[nH]c3ccccc23)C(=O)c2ccco2)cc1 39.8 µM [inhibitor, single point]
CC12CC(NC(=O)N1c1cccc(C(=O)NCc3ccccc3)c1)c1ccccc1O2 (configuration not stated) 0.282 µM [inhibitor, full curve, poor fit]
COc1cc2cc(CN(Cc3cccnc3)C(=O)Nc3ccccc3)c(=O)[nH]c2cc1OC 5.62 µM [inhibitor, partial curve, poor fit]
